# Results taken from the supplement of paper PMC9226226.
# Values joined by “and” are separate entries in the source; they are usually repeats but may differ in a detail not shown here. Identical values can stand only once. Some of the results follow. Several reference drugs read as weak here; read low effects with care.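 Prematurely aging human mesenchymal stem cells without the Werner syndrome gene were monitored by automated live-cell imaging over three biological repeats. The top twenty drugs for increasing growth versus vehicle moved forward; no fixed cutoff was specified.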
# Test system: Werner syndrome hMSCs (WRN-/-)
# Test: relative cell density (fold change vs vehicle control); higher = more proliferation (geroprotective)
# Conditions: concentration (umol/L): 1, 6 days
SMILES,relative cell density (vehicle: DMSO),relative cell density (vehicle: Water)
Nc1ccc(C(=O)O)c(O)c1,1.18,
CCCCN1CCCC[C@H]1C(=O)Nc1c(C)cccc1C,1.04,
Cc1cn(-c2cc(NC(=O)c3ccc(C)c(Nc4nccc(-c5cnccn5)n4)c3)cc(C(F)(F)F)c2)cn1,1.06,
CC(C)[C@H](O)C(=O)N[C@@H](C)C(=O)N[C@@H]1C(=O)N(C)CCc2ccccc21,0.973,
CCC(=O)O[C@]1(C(=O)SCF)[C@H](C)C[C@H]2[C@@H]3C[C@H](F)C4=CC(=O)C=C[C@]4(C)[C@@]3(F)[C@@H](O)C[C@@]21C,1.33,
CN1CCC(=C2c3ccccc3CCn3c(C=O)cnc32)CC1,1.15,
Nc1ccc(/N=N/c2ccccc2)c(N)n1,0.836,
CC(NCCc1ccc(O)cc1)C(O)c1ccc(O)cc1 (stereo unspecified),1.31,
CCC(C)C1OC2(CCC1C)CC1CC(CC=C(C)C(OC3CC(OC)C(OC4CC(OC)C(O)C(C)O4)C(C)O3)C(C)C=CC=C3COC4C(O)C(C)=CC(C(=O)O1)C34O)O2 (stereo unspecified),1.04,
NC[C@@H]1O[C@H](O[C@H]2[C@@H](O)[C@H](O[C@@H]3[C@@H](O)[C@H](N)C[C@H](N)[C@H]3O[C@H]3O[C@H](CN)[C@@H](O)[C@H](O)[C@H]3N)O[C@@H]2CO)[C@H](N)[C@@H](O)[C@@H]1O,,0.96
CCC1(C)CC(=O)NC1=O (stereo unspecified),1.07,
C[C@H](Nc1ncnc2nc[nH]c12)c1cc2cccc(Cl)c2c(=O)n1-c1ccccc1,1.27,
O=S(=O)(c1cccc2cnccc12)N1CCCNCC1,0.991,
O=C(c1ccc(F)c(F)c1Nc1ccc(I)cc1F)N1CC(O)([C@@H]2CCCCN2)C1,0.557,
CCOC(=O)CC(=O)N1CCSC1COc1ccccc1OC (stereo unspecified),0.851,
CC(=O)Oc1ccc(C(c2ccc(OC(C)=O)cc2)c2ccccn2)cc1,0.21,
CCC(C)(C)C(=O)O[C@H]1C[C@@H](C)C=C2C=C[C@H](C)[C@H](CC[C@@H]3C[C@@H](O)CC(=O)O3)[C@H]21,0.404,
CCNC1(C(N)=O)CCN(c2ncnc3c2nc(-c2ccccc2Cl)n3-c2ccc(Cl)cc2)CC1,,1.11
CCCc1nn(C)c2c(=O)[nH]c(-c3cc(S(=O)(=O)N4CCN(C)CC4)ccc3OCC)nc12,1.37 and 0.994,0.912
O=[N+]([O-])c1ccc(O)c2ncccc12,1.09,
N#CC[C@H](C1CCCC1)n1cc(-c2ncnc3[nH]ccc23)cn1,0.989 and 0.93,
CN(Cc1cc(Br)cc(Br)c1N)C1CCCCC1,1.37,
C[C@H](CS)C(=O)N1CCC[C@H]1C(=O)O,1.21,
Cn1cnc2c(F)c(Nc3ccc(Br)cc3Cl)c(C(=O)NOCCO)cc21,1.03,
NCCc1ccc(O)c(O)c1,1.1,
OC[C@@H](O)CN1CCN(c2ccccc2)CC1,0.69,
N#CC1(c2ccc(NC(=O)c3cccnc3NCc3ccncc3)cc2)CCCC1,0.837,
Cc1c(Nc2ncccc2C(=O)O)cccc1C(F)(F)F,1.13,

SMILES,relative cell density (vehicle: DMSO),relative cell density (vehicle: Water)
CC[C@H](c1ccc(O)cc1)[C@@H](CC)c1ccc(O)cc1,0.972,
COC(=O)N[C@H](C(=O)N1CC2(CC2)C[C@H]1c1nc(-c2ccc3c(c2)C(F)(F)c2cc(-c4ccc5[nH]c([C@@H]6[C@H]7CC[C@H](C7)N6C(=O)[C@@H](NC(=O)OC)C(C)C)nc5c4)ccc2-3)c[nH]1)C(C)C,0.846,
COc1ccc(CNc2nc(N3CCC[C@H]3CO)ncc2C(=O)NCc2ncccn2)cc1Cl,0.753,
CC(=O)OCC(=O)[C@@]1(O)CC[C@H]2[C@@H]3CCC4=CC(=O)C=C[C@]4(C)[C@H]3[C@@H](O)C[C@@]21C,1.12,
Cn1nnc2c(C(N)=O)ncn2c1=O,1.24,
CC(C)(C)CC(C)(C)c1ccc(OCCOCC[N+](C)(C)Cc2ccccc2)cc1,1.15,
CCCCOc1ccc(C(=O)CCN2CCCCC2)cc1,0.956,
Nc1nc(N)c2nc(-c3ccccc3)c(N)nc2n1,0.991,
C=C1CC[C@H](O)C/C1=C/C=C1\CCC[C@]2(C)[C@@H]([C@H](C)/C=C/[C@H](C)C(C)C)CC[C@@H]12,0.748,
CC(C)(C)NC(=O)[C@H]1CC[C@H]2[C@@H]3CC[C@H]4NC(=O)C=C[C@]4(C)[C@H]3CC[C@]12C,1.04,
C=CC[N+]1([C@H]2C[C@H]3[C@@H]4CC[C@H]5C[C@H](O)[C@@H](N6CCOCC6)C[C@]5(C)[C@H]4CC[C@]3(C)[C@H]2OC(C)=O)CCCC1,1.08,
CCS(=O)(=O)N1CCN(c2ccc(Nc3ncc(C(N)=O)c(NC4CC4)n3)cc2)CC1,0.934,
CC(C)C(=O)c1c(C(C)C)nn2ccccc12,0.867,
CC(=O)NC(CC(C)C)C(=O)O (stereo unspecified),1.28,
CC(C)c1nc(CN(C)C(=O)N[C@@H](CCN2CCOCC2)C(=O)N[C@H](CC[C@H](Cc2ccccc2)NC(=O)OCc2cncs2)Cc2ccccc2)cs1,1.03,
Cc1cccc(-c2nn3c(c2-c2ccnc4ccc(C(N)=O)cc24)CCC3)n1,0.982,
CC12CC3CC(C)(C1)CC(N)(C3)C2,1.1,
CN1C(C(=O)Nc2ccccn2)=C(O)c2sc(Cl)cc2S1(=O)=O,,0.933
CCC[C@@H]1C[C@@H](C(=O)N[C@@H]([C@H]2O[C@H](SC)[C@H](O)[C@@H](O)[C@H]2O)[C@@H](C)O)N(C)C1,1.05,
CN1CCCN=C1/C=C/c1cccs1,1.25,
CO[C@H]1C[C@@H]2CC[C@@H](C)[C@@](O)(O2)C(=O)C(=O)N2CCCC[C@H]2C(=O)O[C@H]([C@H](C)C[C@@H]2CC[C@@H](OC(=O)C(C)(CO)CO)[C@H](OC)C2)CC(=O)[C@H](C)/C=C(\C)[C@@H](O)[C@@H](OC)C(=O)[C@H](C)C[C@H](C)/C=C/C=C/C=C/1C,0.557,
O=c1cc[nH]c(=O)[nH]1,1.42,
O=C(O)CCCN1CCC(O[C@@H](c2ccc(Cl)cc2)c2ccccn2)CC1,1.15,
C[C@H]1C[C@H]2[C@@H]3CCC4=CC(=O)C=C[C@]4(C)[C@H]3C(=O)C[C@]2(C)[C@@]1(O)C(=O)CO,1.11,
CCC(=O)OCC(=O)[C@@]1(OC(=O)CC)[C@@H](C)C[C@H]2[C@@H]3CCC4=CC(=O)C=C[C@]4(C)[C@@]3(F)[C@@H](O)C[C@@]21C,1.27,
NNC(=O)c1ccncc1,1.36,
CCN1CCCC1CNC(=O)c1cc(S(N)(=O)=O)ccc1OC (stereo unspecified),1.32,
